From paper PMC7819943, “Rice protein-binding microarrays: a tool to detect cis-acting elements near promoter regions in rice”
The list shows a part of the results.

Chains of the proteins cited; added tags and fusions are not shown.
UniProt Q0JBA9, entry or part of it: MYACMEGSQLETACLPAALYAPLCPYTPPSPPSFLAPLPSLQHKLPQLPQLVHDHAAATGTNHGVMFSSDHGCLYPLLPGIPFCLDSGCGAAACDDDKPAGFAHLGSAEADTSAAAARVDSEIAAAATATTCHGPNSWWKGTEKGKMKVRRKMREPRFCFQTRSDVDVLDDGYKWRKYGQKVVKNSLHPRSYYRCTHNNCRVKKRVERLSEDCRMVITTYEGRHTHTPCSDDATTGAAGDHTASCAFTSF

Target: OsWRKY34 (Oryza sativa, UniProt Q0JBA9 1-250)
Assay: protein-binding microarray (RPBM); PBS, 2% BSA, 51.3 ng/ul salmon testes DNA, 50 uM zinc acetate, 200 nM TF, 25 C, 1 h; high values mean tight binding
Conditions: protein: recombinant; tags: N-terminal polyhistidine and DsRed monomer fusion (pET32a); label: CyDye5-dUTP incorporated in the synthesized complementary strand; 3' TTTTT single-stranded linker to array surface; dsDNA, one strand shown
Method in brief: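 A custom Agilent array was converted to double-stranded form by primer extension with Cy5-dUTP and blocked with 2% BSA. Protein at 200 nM in PBS with 2% BSA, salmon testes DNA and 50 µM zinc acetate was applied for 1 h at 25 °C, followed by washing. The proteins were polyhistidine–DsRed N-terminal fusions of transcription factors, expressed in E. coli BL21-CodonPlus and Ni–NTA-purified. The binding signal is per-feature fluorescence intensity (arbitrary units) from an Axon 4000B scanner.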

Sequence | binding signal
CGATATCCCACTTCCCGGCATATTTCCAGCGGCAATCTTCCGGAGTCACCTAGTGCAG | 8150 fluorescence intensity (a.u.)
TTCTTCTACATCTTACTCCTTTCTTCATGTATTCCACATCCGGAGTCACCTAGTGCAG | 11400 fluorescence intensity (a.u.)
ATGTAGTAATCTCATGGATTAAAGGCTCTTTTTTCTTGTCCGGAGTCACCTAGTGCAG | 8860 fluorescence intensity (a.u.)
CACACCACCGGCCGCCGCCGCCGCGCCGCCATTCGCGATGCGGAGTCACCTAGTGCAG | 8550 fluorescence intensity (a.u.)
TTTTTATTTGTTATTTACAAGACTAGTATGCTTCATCTGCCGGAGTCACCTAGTGCAG | 8050 fluorescence intensity (a.u.)
TTTGGGGTGTGTTTTTGTCTAGAGGTAAAGTTTTTAAAGTCGGAGTCACCTAGTGCAG | 10600 fluorescence intensity (a.u.)
TAACCTGGAACTCATTTCGTCTTAATCTGAAGCATCCCATCGGAGTCACCTAGTGCAG | 8950 fluorescence intensity (a.u.)
CGACCGCATCAACAAATACAGCCCAAGTCCTATGCAATAACGGAGTCACCTAGTGCAG | 8140 fluorescence intensity (a.u.)
TATCCATGCATTCCTTACGCTCGGTCTCTTTTCTTTCGCCCGGAGTCACCTAGTGCAG | 9280 fluorescence intensity (a.u.)
CATCGTGCAATTGATTGATCGTCTGATTTTATGTCGATTCCGGAGTCACCTAGTGCAG | 8640 fluorescence intensity (a.u.)
CGAACTCCTCCCGTTTTCCCGTCCCCGCATCCGCAAATCACGGAGTCACCTAGTGCAG | 9500 fluorescence intensity (a.u.)
CGCCGCCGCCCTCACCCTCGCCGCCGCGCATCCCGCGGTCCGGAGTCACCTAGTGCAG | 8120 fluorescence intensity (a.u.)
ATGGGAGGGGCTTTGGTGGCAATGGAGTTAACCTTCCTCTCGGAGTCACCTAGTGCAG | 10800 fluorescence intensity (a.u.)
CGCAAAATCAATCAAATCTGCCTCGACTTTTTTTTTTCAGCGGAGTCACCTAGTGCAG | 8870 fluorescence intensity (a.u.)
CCTGTCTCGCTGCACAGTTGTACACTCTCCTGGAGAATGCCGGAGTCACCTAGTGCAG | 9170 fluorescence intensity (a.u.)
AACCTCTCCATGCCTTGCTGCGCTCCGGCATTTCGTCAAACGGAGTCACCTAGTGCAG | 9720 fluorescence intensity (a.u.)
TTGGGTTTAGGGCGGTAATTCGGTTGACCGCGATAGTTCACGGAGTCACCTAGTGCAG | 12400 fluorescence intensity (a.u.)
TCGATCGCCTGCTCCGCTACGAATAGCCATGTTGCGACCCCGGAGTCACCTAGTGCAG | 8840 fluorescence intensity (a.u.)
TCTGAGTGGTTCTCTGGGCGTTGTTGGTGCGTTCTTGATCCGGAGTCACCTAGTGCAG | 8900 fluorescence intensity (a.u.)
GATTGCTCCGACCTCACCGTCTCTCTTCTTTCTCCCCAATCGGAGTCACCTAGTGCAG | 10700 fluorescence intensity (a.u.)
ATTTGCTCTGTAGTATATACATTATTTTAGCTATATTTGACGGAGTCACCTAGTGCAG | 10500 fluorescence intensity (a.u.)

Copied from above for reference:
Sequence | binding signal
CCTGTCTCGCTGCACAGTTGTACACTCTCCTGGAGAATGCCGGAGTCACCTAGTGCAG | 9170 fluorescence intensity (a.u.)
AACCTCTCCATGCCTTGCTGCGCTCCGGCATTTCGTCAAACGGAGTCACCTAGTGCAG | 9720 fluorescence intensity (a.u.)

(next part)

Sequence | binding signal
CATTTCTCCTCATCCCACACTCCTCATCTTGTGCTCTCAACGGAGTCACCTAGTGCAG | 9420 ± 112 fluorescence intensity (a.u.)
TTTTATATGTTTTTTGCCAGACAGTTTAGTCAGCTCCCAGCGGAGTCACCTAGTGCAG | 8090 fluorescence intensity (a.u.)
CACATGTACTACTACTATCTGTTTGCCTCTTCCCACATCCCGGAGTCACCTAGTGCAG | 8410 fluorescence intensity (a.u.)
TCATCAATGTCGACTTCTGTTTTGAAGTCGCTTTTTCATCCGGAGTCACCTAGTGCAG | 9100 fluorescence intensity (a.u.)
CCCTACTGCCCTTGACCCCTCCCGCTCCCCTCAGATCTCCCGGAGTCACCTAGTGCAG | 14800 fluorescence intensity (a.u.)
GTAATGTTGTTTATTCATCCTGGTTTTCTCTTTTCTAGTGCGGAGTCACCTAGTGCAG | 8840 fluorescence intensity (a.u.)
GGTGGGCAACGTTTAGGTTCGACTTTCTTTGTGAGATGTGCGGAGTCACCTAGTGCAG | 9250 fluorescence intensity (a.u.)
AGAAAGAGGGGAGGTGGGGTTGAAGACTAAAGTTGTAACTCGGAGTCACCTAGTGCAG | 8290 fluorescence intensity (a.u.)
ATCTCATAACTTACCACCAGCATACTGTCCAAAATACACACGGAGTCACCTAGTGCAG | 9040 fluorescence intensity (a.u.)
TCGATTAGGCTCGCTGGTGTTTTCTCTCACCTCTACGTCACGGAGTCACCTAGTGCAG | 11600 fluorescence intensity (a.u.)
GCCTTACACTGTCCTTGATCTTGTGTGACCCATCTATATACGGAGTCACCTAGTGCAG | 11400 fluorescence intensity (a.u.)
CACCGCAGTCAACGACGCCGGCCGTCGCTGTCTTTCTCGCCGGAGTCACCTAGTGCAG | 8330 fluorescence intensity (a.u.)
GTTCCTCTCTGATGCGTGGGTCCTTTGCCTTTTGTTGCTCCGGAGTCACCTAGTGCAG | 8590 fluorescence intensity (a.u.)
GCCACGTGGGTGATCGTGTCTGCCTCAAGTCTCTAAGTCACGGAGTCACCTAGTGCAG | 9000 fluorescence intensity (a.u.)
CCGACCCGACCCGACCACCCACCGGCGAGGCCCACTCCGTCGGAGTCACCTAGTGCAG | 8620 fluorescence intensity (a.u.)
AGGGTGGGGCGGGGATGCCTCCTGGCATCGGGGACGAGAGCGGAGTCACCTAGTGCAG | 10200 fluorescence intensity (a.u.)
TTATCTTGCATTCTTGTTCTTGGTTTGCATCTCTTCTTGCCGGAGTCACCTAGTGCAG | 12800 fluorescence intensity (a.u.)
CAGATAACGGCCGCGACCTCACCCTTCGTCACCCCTAACCCGGAGTCACCTAGTGCAG | 8110 fluorescence intensity (a.u.)
TCGCTCGCCCGCCGTGAAAAGTGCCCTTTTTTCCTTTCAACGGAGTCACCTAGTGCAG | 11000 fluorescence intensity (a.u.)
GTTTGTGGTGTGCATTGCCGATTTGCCATTGCGTTGGGTTCGGAGTCACCTAGTGCAG | 10100 fluorescence intensity (a.u.)
GGCAAAGATGATGTTACTATGATCAATGAGGTCTACTCTACGGAGTCACCTAGTGCAG | 8840 fluorescence intensity (a.u.)
